# Assay results published in the supplement of paper PMC6411743.
# The chains behind the UniProt entries cited, without tags or fusion partners. Where a name states a change or a piece, a line headed by the entry shows the natural chain unless it says otherwise.
# UniProt O75909: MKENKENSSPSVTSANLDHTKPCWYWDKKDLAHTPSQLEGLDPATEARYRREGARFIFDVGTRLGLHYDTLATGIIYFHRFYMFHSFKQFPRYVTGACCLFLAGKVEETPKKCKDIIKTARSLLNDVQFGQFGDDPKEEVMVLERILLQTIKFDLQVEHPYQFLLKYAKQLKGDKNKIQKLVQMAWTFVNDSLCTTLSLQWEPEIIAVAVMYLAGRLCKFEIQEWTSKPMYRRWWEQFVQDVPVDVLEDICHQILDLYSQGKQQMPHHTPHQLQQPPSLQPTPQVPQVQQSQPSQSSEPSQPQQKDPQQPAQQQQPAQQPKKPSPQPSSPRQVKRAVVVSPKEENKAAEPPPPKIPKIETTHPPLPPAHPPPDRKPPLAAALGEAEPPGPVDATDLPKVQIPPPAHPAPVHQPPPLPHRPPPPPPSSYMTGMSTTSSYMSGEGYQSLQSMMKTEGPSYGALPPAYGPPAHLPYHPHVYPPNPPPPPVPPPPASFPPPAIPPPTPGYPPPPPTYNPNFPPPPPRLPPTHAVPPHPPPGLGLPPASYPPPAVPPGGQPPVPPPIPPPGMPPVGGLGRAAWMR
# UniProt O95825: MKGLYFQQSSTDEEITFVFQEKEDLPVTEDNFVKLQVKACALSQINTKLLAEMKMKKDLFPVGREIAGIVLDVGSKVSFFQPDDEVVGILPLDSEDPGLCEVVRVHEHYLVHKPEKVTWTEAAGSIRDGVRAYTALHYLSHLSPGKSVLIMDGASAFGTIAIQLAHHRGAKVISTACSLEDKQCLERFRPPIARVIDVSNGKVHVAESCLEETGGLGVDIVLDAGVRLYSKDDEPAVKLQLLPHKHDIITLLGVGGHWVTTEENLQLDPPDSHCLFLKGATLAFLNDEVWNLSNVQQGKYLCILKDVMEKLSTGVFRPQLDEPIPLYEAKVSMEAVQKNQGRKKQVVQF
# UniProt P04040: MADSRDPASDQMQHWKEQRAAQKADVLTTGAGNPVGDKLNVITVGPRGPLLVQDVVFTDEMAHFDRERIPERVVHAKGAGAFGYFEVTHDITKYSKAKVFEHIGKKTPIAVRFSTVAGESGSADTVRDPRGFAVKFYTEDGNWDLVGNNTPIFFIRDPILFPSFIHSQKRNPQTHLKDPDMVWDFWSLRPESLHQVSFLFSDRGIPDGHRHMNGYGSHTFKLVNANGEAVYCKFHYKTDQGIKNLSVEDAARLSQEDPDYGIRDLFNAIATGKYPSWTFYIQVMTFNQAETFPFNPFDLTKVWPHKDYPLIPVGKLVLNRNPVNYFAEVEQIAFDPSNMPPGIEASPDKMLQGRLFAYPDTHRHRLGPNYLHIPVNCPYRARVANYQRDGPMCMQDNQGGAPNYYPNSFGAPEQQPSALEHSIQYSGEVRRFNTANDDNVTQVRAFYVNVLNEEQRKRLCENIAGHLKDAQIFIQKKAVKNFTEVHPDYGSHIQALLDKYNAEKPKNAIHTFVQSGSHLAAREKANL
# UniProt O94927: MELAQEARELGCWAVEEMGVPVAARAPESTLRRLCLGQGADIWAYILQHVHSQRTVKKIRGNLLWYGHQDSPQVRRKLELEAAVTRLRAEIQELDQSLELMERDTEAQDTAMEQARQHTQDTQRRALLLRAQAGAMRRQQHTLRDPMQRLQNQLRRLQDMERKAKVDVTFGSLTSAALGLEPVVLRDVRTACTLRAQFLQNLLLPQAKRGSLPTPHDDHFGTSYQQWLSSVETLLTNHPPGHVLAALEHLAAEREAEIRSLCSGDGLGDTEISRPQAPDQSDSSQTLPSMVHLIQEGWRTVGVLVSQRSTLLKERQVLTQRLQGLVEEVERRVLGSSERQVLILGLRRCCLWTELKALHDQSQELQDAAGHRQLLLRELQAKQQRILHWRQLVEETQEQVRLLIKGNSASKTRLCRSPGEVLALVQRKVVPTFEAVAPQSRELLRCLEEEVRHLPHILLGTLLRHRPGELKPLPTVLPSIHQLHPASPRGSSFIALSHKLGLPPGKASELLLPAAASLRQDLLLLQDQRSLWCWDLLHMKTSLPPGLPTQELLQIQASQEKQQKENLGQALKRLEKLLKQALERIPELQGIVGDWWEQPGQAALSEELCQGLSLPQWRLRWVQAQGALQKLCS
# UniProt O75330: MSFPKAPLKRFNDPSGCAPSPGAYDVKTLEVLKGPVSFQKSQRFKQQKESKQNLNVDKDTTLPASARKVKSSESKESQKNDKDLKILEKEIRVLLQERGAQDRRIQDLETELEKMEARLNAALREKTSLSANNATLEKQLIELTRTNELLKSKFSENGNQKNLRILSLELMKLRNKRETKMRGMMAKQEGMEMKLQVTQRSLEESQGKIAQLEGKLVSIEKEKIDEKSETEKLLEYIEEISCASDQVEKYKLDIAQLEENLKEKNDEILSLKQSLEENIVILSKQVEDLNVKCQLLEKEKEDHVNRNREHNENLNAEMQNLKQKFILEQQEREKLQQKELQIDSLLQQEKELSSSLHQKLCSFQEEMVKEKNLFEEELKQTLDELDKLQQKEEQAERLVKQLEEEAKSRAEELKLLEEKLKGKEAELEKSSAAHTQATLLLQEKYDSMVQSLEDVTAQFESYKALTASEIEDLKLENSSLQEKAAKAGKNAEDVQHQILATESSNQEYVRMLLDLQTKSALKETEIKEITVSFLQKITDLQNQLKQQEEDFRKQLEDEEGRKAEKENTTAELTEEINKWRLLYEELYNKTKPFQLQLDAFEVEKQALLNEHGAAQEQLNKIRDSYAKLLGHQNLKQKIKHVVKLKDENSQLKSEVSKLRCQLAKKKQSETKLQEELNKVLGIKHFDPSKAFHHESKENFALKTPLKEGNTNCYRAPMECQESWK
# UniProt O95292, whole entry: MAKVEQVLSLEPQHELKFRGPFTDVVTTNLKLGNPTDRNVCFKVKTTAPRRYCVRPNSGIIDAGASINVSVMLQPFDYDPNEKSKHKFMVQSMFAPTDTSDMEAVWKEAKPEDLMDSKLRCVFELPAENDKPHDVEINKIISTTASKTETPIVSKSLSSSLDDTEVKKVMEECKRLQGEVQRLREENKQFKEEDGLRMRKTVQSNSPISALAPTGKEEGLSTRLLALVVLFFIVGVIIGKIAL
# UniProt O76071: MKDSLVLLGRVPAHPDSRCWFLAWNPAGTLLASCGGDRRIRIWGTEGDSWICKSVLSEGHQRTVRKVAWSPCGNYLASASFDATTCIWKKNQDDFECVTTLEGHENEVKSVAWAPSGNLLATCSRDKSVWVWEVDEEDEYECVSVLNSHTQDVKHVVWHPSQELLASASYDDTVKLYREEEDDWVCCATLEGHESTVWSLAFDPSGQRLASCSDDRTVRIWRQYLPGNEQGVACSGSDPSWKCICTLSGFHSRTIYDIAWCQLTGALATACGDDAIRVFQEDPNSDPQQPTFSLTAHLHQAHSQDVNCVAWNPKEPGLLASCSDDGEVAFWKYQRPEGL
# UniProt O95602, whole entry: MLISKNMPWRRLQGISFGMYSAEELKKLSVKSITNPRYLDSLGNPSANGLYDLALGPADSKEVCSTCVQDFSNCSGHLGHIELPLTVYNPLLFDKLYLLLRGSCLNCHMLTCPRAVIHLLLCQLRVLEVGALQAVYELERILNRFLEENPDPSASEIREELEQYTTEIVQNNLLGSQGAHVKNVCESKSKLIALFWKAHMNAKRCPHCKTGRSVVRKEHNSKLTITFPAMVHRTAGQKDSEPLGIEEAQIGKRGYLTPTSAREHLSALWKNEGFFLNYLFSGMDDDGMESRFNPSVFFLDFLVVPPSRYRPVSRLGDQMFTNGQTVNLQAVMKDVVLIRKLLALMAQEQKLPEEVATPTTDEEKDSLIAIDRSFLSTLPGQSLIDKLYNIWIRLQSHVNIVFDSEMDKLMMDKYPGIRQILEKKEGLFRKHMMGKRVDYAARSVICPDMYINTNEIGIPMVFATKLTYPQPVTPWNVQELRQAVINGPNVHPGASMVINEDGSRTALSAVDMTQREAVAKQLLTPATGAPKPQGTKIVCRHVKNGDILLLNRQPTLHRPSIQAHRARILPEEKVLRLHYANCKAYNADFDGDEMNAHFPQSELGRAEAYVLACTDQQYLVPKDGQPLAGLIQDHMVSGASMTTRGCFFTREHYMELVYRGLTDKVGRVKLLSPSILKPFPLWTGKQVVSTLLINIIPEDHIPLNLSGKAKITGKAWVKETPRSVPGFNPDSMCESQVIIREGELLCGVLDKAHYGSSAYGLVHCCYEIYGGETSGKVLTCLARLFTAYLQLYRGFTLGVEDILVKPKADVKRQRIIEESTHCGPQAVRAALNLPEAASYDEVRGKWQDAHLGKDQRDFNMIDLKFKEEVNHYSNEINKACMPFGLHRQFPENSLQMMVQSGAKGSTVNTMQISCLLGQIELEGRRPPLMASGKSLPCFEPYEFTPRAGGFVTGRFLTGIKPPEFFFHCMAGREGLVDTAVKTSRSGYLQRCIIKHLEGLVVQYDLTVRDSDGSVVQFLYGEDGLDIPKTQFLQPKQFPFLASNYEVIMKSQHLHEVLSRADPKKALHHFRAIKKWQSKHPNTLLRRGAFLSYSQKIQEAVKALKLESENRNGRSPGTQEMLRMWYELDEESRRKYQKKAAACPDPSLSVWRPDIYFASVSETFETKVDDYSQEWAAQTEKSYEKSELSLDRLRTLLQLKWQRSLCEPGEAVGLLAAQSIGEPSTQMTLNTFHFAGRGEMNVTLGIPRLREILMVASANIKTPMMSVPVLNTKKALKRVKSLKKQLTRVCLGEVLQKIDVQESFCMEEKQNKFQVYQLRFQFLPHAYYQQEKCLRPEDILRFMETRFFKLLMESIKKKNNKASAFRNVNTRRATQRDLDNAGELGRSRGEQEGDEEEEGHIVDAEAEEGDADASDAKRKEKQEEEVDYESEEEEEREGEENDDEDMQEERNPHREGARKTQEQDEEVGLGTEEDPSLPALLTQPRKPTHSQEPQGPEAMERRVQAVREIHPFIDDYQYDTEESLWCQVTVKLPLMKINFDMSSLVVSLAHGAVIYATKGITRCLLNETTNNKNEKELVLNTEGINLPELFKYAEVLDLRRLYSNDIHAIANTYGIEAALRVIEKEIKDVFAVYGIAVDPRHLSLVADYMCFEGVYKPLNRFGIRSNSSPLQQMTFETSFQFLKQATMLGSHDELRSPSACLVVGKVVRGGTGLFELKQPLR
# UniProt O75828: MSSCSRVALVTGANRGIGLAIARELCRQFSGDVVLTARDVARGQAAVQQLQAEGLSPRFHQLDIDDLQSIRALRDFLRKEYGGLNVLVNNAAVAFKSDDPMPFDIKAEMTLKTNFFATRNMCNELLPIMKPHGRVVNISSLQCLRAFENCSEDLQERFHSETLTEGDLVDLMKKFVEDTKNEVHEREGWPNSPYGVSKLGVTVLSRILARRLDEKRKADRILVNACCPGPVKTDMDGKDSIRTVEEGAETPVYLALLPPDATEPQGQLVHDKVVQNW
# UniProt O95453: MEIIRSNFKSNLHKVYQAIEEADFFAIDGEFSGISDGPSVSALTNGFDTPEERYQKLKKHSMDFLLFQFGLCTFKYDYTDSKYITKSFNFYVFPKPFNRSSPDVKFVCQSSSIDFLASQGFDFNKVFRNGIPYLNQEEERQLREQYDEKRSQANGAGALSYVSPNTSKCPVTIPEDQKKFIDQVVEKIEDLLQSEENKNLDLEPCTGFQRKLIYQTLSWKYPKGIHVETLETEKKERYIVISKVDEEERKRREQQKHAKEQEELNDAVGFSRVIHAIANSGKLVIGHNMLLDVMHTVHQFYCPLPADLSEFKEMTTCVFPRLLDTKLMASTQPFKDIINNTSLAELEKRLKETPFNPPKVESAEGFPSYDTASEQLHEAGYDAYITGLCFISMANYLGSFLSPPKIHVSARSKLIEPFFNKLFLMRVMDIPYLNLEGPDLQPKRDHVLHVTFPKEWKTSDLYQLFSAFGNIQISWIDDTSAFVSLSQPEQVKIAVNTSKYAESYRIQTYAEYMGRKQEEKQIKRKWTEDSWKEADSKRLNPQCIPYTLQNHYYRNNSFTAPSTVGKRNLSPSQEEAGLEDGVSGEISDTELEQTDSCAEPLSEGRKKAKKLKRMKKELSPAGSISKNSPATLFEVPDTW
# UniProt P11177, whole entry, looked up: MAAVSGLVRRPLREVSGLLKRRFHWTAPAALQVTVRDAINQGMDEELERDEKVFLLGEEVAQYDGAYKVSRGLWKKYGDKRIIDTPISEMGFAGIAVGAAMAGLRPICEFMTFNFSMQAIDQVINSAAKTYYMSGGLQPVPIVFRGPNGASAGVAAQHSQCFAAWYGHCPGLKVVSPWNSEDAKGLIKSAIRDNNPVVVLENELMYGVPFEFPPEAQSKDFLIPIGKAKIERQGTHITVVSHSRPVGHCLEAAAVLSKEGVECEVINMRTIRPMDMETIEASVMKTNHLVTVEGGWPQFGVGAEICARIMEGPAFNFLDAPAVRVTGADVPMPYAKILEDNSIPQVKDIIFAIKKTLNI
# ± gives the standard deviation of the averaged measurements. Some of the results follow.
# Compound: Nc1nc2c(ncn2[C@@H]2O[C@H](COP(=O)(O)OP(=O)(O)OP(=O)(O)O)[C@@H](O)[C@H]2O)c(=O)[nH]1 [guanosine triphosphate]
# Experiment: NP40-soluble protein abundance relative to vehicle (solubility fold change) (ratio); higher = more soluble protein in presence of GTP
# Outline: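 Each value is a fold change relative to the detergent-processed vehicle, calculated per replicate from vsn-normalised intensities. Jurkat crude lysate received eight concentrations (0.1 to 10 mM) for 10 min at room temperature and 3 min at 37 °C, then was solubilised in 0.8% NP40 with benzonase (60 min, 4 °C). The ultracentrifuged supernatant was TMT-labelled and run by LC-MS/MS in three independent experiments.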
Target,NP40-soluble protein abundance (concentration: 0.1mM),NP40-soluble protein abundance (concentration: 0.5mM),NP40-soluble protein abundance (concentration: 1mM),NP40-soluble protein abundance (concentration: 2mM),NP40-soluble protein abundance (concentration: 4mM),NP40-soluble protein abundance (concentration: 6mM),NP40-soluble protein abundance (concentration: 8mM),NP40-soluble protein abundance (concentration: 10mM)
UniProt O75909 and related entries,1.04 ± 0.014,1.08 ± 0.034,1.13 ± 0.028,1.07 ± 0.085,1.12 ± 0.086,1.09 ± 0.081,1.134 ± 0.009,1.07 ± 0.052
CRYZL1 (UniProt O95825),1.04 ± 0.042,1.02 ± 0.061,0.986 ± 0.039,0.964 ± 0.038,0.964 ± 0.038,0.971 ± 0.032,0.972 ± 0.046,0.925 ± 0.037
CAT (UniProt P04040),1.03 ± 0.016,1.04 ± 0.041,0.978 ± 0.01,0.973 ± 0.023,0.965 ± 0.014,0.941 ± 0.022,0.941 ± 0.022,0.905 ± 0.013
UniProt O94927,0.965 ± 0.026,0.968 ± 0.072,0.965 ± 0.028,0.9729 ± 0.0057,0.9737 ± 0.0073,0.99 ± 0.047,0.956 ± 0.04,0.983 ± 0.022
UniProt O75330 and related entries,1.03 ± 0.049,0.9475 ± 0.0087,1.08 ± 0.061,1.08 ± 0.041,1.06 ± 0.026,1.05 ± 0.076,1.07 ± 0.016,1.12 ± 0.03
VAPB (UniProt O95292),0.935 ± 0.067,0.926 ± 0.093,0.944 ± 0.088,0.918 ± 0.11,0.924 ± 0.082,0.913 ± 0.098,0.944 ± 0.086,0.949 ± 0.1
UniProt O75419 and related entries,1.01 ± 0.15,0.995 ± 0.14,0.875 ± 0.04,0.899 ± 0.082,0.863 ± 0.046,0.874 ± 0.077,0.806 ± 0.058,0.792 ± 0.03
FRYL (UniProt O94915),1.06 ± 0.068,1.07 ± 0.072,1.12 ± 0.14,1.19 ± 0.16,1.21 ± 0.17,1.2 ± 0.2,1.25 ± 0.22,1.21 ± 0.17
CIAO1 (UniProt O76071),1.2 ± 0.18,1.15 ± 0.18,1.08 ± 0.096,1.11 ± 0.18,1.04 ± 0.18,1.03 ± 0.16,1.02 ± 0.07,1.05 ± 0.17
POLR1A (UniProt O95602),1.17 ± 0.12,1.2 ± 0.13,1.15 ± 0.12,1.28 ± 0.19,1.29 ± 0.15,1.27 ± 0.17,1.29 ± 0.14,1.26 ± 0.15
UniProt P05023 and related entries,0.952 ± 0.036,0.974 ± 0.039,0.964 ± 0.037,0.932 ± 0.069,0.919 ± 0.06,0.938 ± 0.058,0.957 ± 0.029,0.937 ± 0.062
CBR3 (UniProt O75828),1.15 ± 0.032,1.21 ± 0.11,1.11 ± 0.029,1.06 ± 0.082,1.04 ± 0.082,0.936 ± 0.091,1.08 ± 0.22,1.09 ± 0.11
NRAS (UniProt P01111),0.988 ± 0.079,0.948 ± 0.1,0.97 ± 0.082,0.889 ± 0.12,0.929 ± 0.12,0.895 ± 0.12,0.927 ± 0.1,0.847 ± 0.091
UniProt O95453 and related entries,1.03 ± 0.026,1.042 ± 0.0078,0.98 ± 0.02,0.956 ± 0.021,0.98 ± 0.014,0.96 ± 0.037,0.952 ± 0.027,0.915 ± 0.057
P0619_C027|P11177 and related entries (UniProt P11177),1.09 ± 0.053,1.11 ± 0.13,1.14 ± 0.18,1.23 ± 0.21,1.29 ± 0.26,1.27 ± 0.27,1.27 ± 0.27,1.19 ± 0.26

# An excerpt from above, limited to NP40-soluble protein abundance (concentration: 8mM):
Target,NP40-soluble protein abundance (concentration: 8mM)
UniProt O95453 and related entries,0.952 ± 0.027
P0619_C027|P11177 and related entries (UniProt P11177),1.27 ± 0.27
